Assay results published in PubChem BioAssay AID1347075 (National Center for Advancing Translational Sciences (NCATS), 2019).
Among all 400,000 compounds or so, about 5,500 (1.4%) were called active. This list was built around the results that the source calls inconclusive (neither active nor inactive); the mix of calls is not that of the screen. The call rests on the fitted dose curve; in most records, active means well fitted cell-killing curve with a large enough effect; inconclusive means small, poorly fitted or top-dose-only effect, or effect the other way; inactive means flat fitted curve, though single readings scatter. Potencies beside an inconclusive call are fits to weak or partial responses and may not hold up.

assay: qHTS assay for MDR1-selective chemotherapeutics: Primary screen using the parental adenocarcinoma cell KB-3-1; details: KB-3-1 viability, CellTiter-Glo ATP luminescence, 72 h; activity change, negative = cytotoxic: at 46.1 µM (top of the series); further: nearly all actives have a fitted effect of over 60% in size
Summary of the method: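 Cells are dispensed, compounds pinned in, plates held at 37 °C for 72 h, then CellTiter-Glo is added and luminescence read after 10 minutes. Cell line: parental KB-3-1 in phenol-red-free DMEM, 10% FBS.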
On the % scale 0 is the no-effect control and ±100 the full control effect; potency means the concentration at half of the fitted maximal effect.

SMILES | Potency | activity change, negative = cytotoxic
C=CCn1c(SCC(=O)Nc2ccc(F)cc2F)nc2c([nH]c3ccccc32)c1=O | inconclusive: 18.4 µM [rising, partial curve, poor fit] | 
Cc1cc(NC(=O)c2cc3cccc([N+](=O)[O-])c3[nH]2)ccc1F | inconclusive: 29.1 µM [cytotoxic, single point] | 
CCc1ccccc1NS(=O)(=O)c1ccc(NC(=O)N2CCCC2)cc1 |  | inactive: -30.2%
COc1ccc(N2C(=O)CC(Sc3n[nH]c(-c4cccc(C)c4)n3)C2=O)cc1 (centres undefined) |  | inactive: -15.6%
COc1ccc(NC(=O)C2CCCN2S(=O)(=O)c2cccs2)c([N+](=O)[O-])c1 (centres undefined) | inconclusive: 13 µM [cytotoxic, partial curve, poor fit] | 
O=C(C1=C(O)C(=O)N(c2nccs2)C1c1ccccc1)c1cc2ccccc2o1 (centres undefined) | inconclusive: 29.1 µM [cytotoxic, single point] | 
Cc1ccc(NC(=S)N2C3CCCC2CC(NC(=O)C2CC2)C3)cc1C (centres undefined) | inconclusive: 20.6 µM [rising, single point] | 
Fc1ccc(-c2noc3ncnc(NCC4CCN(Cc5ccc(Cl)cc5)CC4)c23)cc1 | inconclusive: 25.9 µM [cytotoxic, partial curve, poor fit] | 
CCCCc1c(-c2ccccc2)ncn1CCc1ccccc1OC | inconclusive: 29.1 µM [cytotoxic, single point] | 
Cc1ccc(-n2c(Cc3cccn3C)nnc2SCC(=O)N2CCc3ccccc32)cc1 |  | inactive: -4.42%
O=C(Nc1ccccn1)C1CCN(S(=O)(=O)c2ccc3c(c2)OCCCO3)CC1 |  | inactive: -20.7%
Cc1ccccc1-c1noc(-c2ccccc2C(=O)NCC2CCCO2)n1 (centres undefined) |  | inactive: -8.94%
CSc1ccc(-c2nc(CSCC(=O)N3CCOCC3)c(C)o2)cc1 | inconclusive: 20.6 µM [cytotoxic, single point] | 
C=CCn1c(-c2c[nH]c3ccccc23)n[nH]c1=S | inconclusive: 23.1 µM [cytotoxic, single point] | 
CC1=C(C(=O)OCC(C)C)C(c2ccc(F)cc2)NC(=O)N1 (centres undefined) |  | inactive: -2.36%
CCN1CCN(S(=O)(=O)c2cc(OCC(=O)NC3CCCCC3)c(C)cc2Cl)CC1 | inconclusive: 16.4 µM [cytotoxic, partial curve] | 
COc1cc2ccc(C(C)=NOC(C)=O)cc2cc1OC | active: 5.17 µM | 
O=C(CN1CCN(c2nc(-c3ccc(F)cc3)cs2)CC1)Nc1ccc2c(c1)OCO2 |  | inactive: -29.4%
CCCC(=O)N1CCCC1(C)C(=O)Nc1ccc2c(c1)CCN2C(C)=O (centres undefined) |  | inactive: 0%
O=C(N[C@@H](Cc1ccc(O)cc1)C(=O)O)c1ccncc1 | inconclusive: 29.1 µM [rising, single point] | 
CC(=O)Cc1nsc(NC(=O)c2ccc(-c3cccc(Cl)c3)o2)n1 | inconclusive: 20.6 µM [cytotoxic, single point] | 
Cn1nc(C(C)(C)C)cc1C(=O)N1CCCCC1c1cc(C(=O)NCc2ccccc2)no1 (centres undefined) | inconclusive: 20.6 µM [cytotoxic, single point] | 

SMILES | Potency | activity change, negative = cytotoxic
CCOC(=O)C1CCCN(CC(O)COc2cccc(C)c2)C1 (centres undefined) |  | inactive: 9.42%
NC(=O)CNC(=O)C1CCN(S(=O)(=O)c2ccc(-n3cnnn3)cc2)CC1 |  | inactive: 6.07%
Cn1nc(C(=O)Nc2ccc3c(c2)OCCO3)cc1C(=O)O | inconclusive: 29.1 µM [cytotoxic, single point] | 
CC(C(Sc1ccccc1N)c1ccccc1)[N+](=O)[O-] (centres undefined) | active: 11.6 µM | 
CC(=O)Nc1cccc(/C(C)=N/NC(=O)c2c(-c3ccccc3Cl)noc2C)c1 | inconclusive: 14.6 µM [cytotoxic, partial curve, poor fit] | 
CCOc1ccc(C(=O)O/N=C(\N)c2ccccn2)cc1 | inconclusive: 13 µM [cytotoxic, partial curve] | 
COc1ccc(/C(N)=N/OC(=O)c2c(-c3ccccc3Cl)noc2C)cc1OC | inconclusive: 29.1 µM [cytotoxic, single point] | 
CCOC(=O)c1ccc(N2C(=O)C3C(C2=O)C(C(=O)c2ccc(Cl)cc2)N2CCCC32)cc1 (centres undefined) | inconclusive: 29.1 µM [cytotoxic, single point] | 
Cc1cccc(NC(=O)CNC(=O)c2cc(S(=O)(=O)N(C)C)ccc2N2CCCC2)c1C |  | inactive: 4.21%
CSc1ccc(CN2CCC(Cc3ccccc3)CC2)cc1 | inconclusive: 29.1 µM [cytotoxic, partial curve, poor fit] | 
O=C(Nc1ccc(O)cc1)c1cccc(Oc2ccc([N+](=O)[O-])cc2)c1 | inconclusive: 29.1 µM [cytotoxic, single point] | 
COc1ccc(/C=N/NC(=O)c2cc(=O)[nH]c3ccccc23)cc1OC |  | inactive: -1.8%
CCN(C(=O)COC(=O)C(c1ccccc1)c1ccccc1)c1c(N)n(Cc2ccccc2)c(=O)[nH]c1=O |  | inactive: -5.07%
O=C1C(=O)N(CNc2ccccn2)c2ccccc21 | inconclusive: 20.6 µM [cytotoxic, single point] | 
COc1ccc(C2=Nn3c(nnc3-c3ccccc3F)SC2)cc1OC1CCCC1 | active: 8.2 µM | 
C/C(=N\NC(=O)c1c(Br)c(C)nn1C)c1cccc(NC(=O)C2CCC2)c1 | inconclusive: 29.1 µM [rising, single point] | 
COc1ccc(N(C(=O)c2ccco2)C(C(=O)NC2CCCC2)c2ccco2)cc1OC (centres undefined) | inconclusive: 20.6 µM [rising, single point] | 
CCO[C@@H]1OC(C(=O)N2CCN(Cc3ccccc3)CC2)=C[C@H](c2csc3ccccc23)[C@H]1CCCO | inconclusive: 20.6 µM [cytotoxic, single point] | 
Cc1ccc(Nc2nnc(SCC(=O)Nc3ncc(S(=O)(=O)c4ccc([N+](=O)[O-])cc4)s3)s2)cc1 |  | inconclusive: -10.6%
COC(=O)c1cc(C(=O)N2CCN(c3cccc(Cl)c3)CC2)cc([N+](=O)[O-])c1 | active: 1.03 µM | 
O=S(=O)(Nc1ccc(-c2ccc3nncn3n2)cc1)c1cccc(F)c1 |  | inactive: 16.7%
COC(=O)Nc1nc(C)c(C(=O)c2ccccc2)s1 | inconclusive: 16.4 µM [cytotoxic, partial curve, poor fit] | 

Sorted by molecular weight (falling): three of the compounds above.
SMILES | Potency | activity change, negative = cytotoxic
CCO[C@@H]1OC(C(=O)N2CCN(Cc3ccccc3)CC2)=C[C@H](c2csc3ccccc23)[C@H]1CCCO | inconclusive: 20.6 µM [cytotoxic, single point] | 
O=C(CN1CCN(c2nc(-c3ccc(F)cc3)cs2)CC1)Nc1ccc2c(c1)OCO2 |  | inactive: -29.4%
C=CCn1c(SCC(=O)Nc2ccc(F)cc2F)nc2c([nH]c3ccccc32)c1=O | inconclusive: 18.4 µM [rising, partial curve, poor fit] | 
